## Binding screen against folded nucleic acids

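Each compound is printed as two spots on a slide made to bind it covalently, so it has no test concentration; the read-out is fluorescence of the bound, labelled oligonucleotide. For the PreQ1, TPP and SAM-II riboswitches the laboratory earlier reported (doi:10.1038/s41467-019-09493-3) 1 µM RNA, 2 h, and a rule that included a mean Z-score above 3 (spot signal-to-noise against the whole library), a score well above that on a control array, and duplicate spots agreeing (coefficient of variation under 100). The data file gives only the calls; its cut-offs may differ, and compounds hitting several targets are kept. The calls come from the array alone, and fixing a compound to the slide can hide its binding.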 “hit” means called a hit, “no hit” means screened and not called a hit. The compounds are a random part of those screened.

Targets, with sequences 5′ to 3′:
PreQ1: PreQ1 riboswitch RNA pseudoknot, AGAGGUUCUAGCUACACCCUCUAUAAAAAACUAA. From B. subtilis. Hit rate about 0.7% of about 24,000 compounds.
TPP: TPP riboswitch RNA three-way junction, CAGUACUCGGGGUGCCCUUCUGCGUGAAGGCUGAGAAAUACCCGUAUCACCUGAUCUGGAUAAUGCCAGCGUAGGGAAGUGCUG. Hit rate about 0.7% of about 24,000 compounds.

* Cc1c(C)n(CCO)c2ncn3nc(Cc4ccccc4)nc3c12 | PreQ1: no hit; TPP: no hit
* CNc1ccc(C(=O)NCC2CCN(CCC(F)(F)F)C2)cc1 (stereo not drawn) | PreQ1: no hit; TPP: no hit
* Clc1ccc(Nc2nc(-c3cccnc3)cs2)cc1 | PreQ1: no hit; TPP: no hit
* Cc1cccc(-n2nnc(-c3nc(-c4ccc(Br)cc4)no3)c2N)c1C | PreQ1: no hit; TPP: no hit
* Cc1nc(NCC(O)COc2ccc(Cl)c(C)c2)c2cnn(C)c2n1 (stereo not drawn) | PreQ1: no hit; TPP: no hit
* CCC(C)Nc1c(-c2ccc(C(C)C)cc2)c(=O)c1=O (stereo not drawn) | PreQ1: hit; TPP: no hit
* Cc1cc(C(F)(F)F)nc(CCNC2CCC3(CCNCC3)CC2)n1 | PreQ1: no hit; TPP: no hit
* COc1cc(CC2CC(CN)=NO2)c(OC)c2c1OCO2 (stereo not drawn) | PreQ1: no hit; TPP: no hit
* CCCCn1c(OC(=S)N(CC)CC)cc(C)nc1=S | PreQ1: no hit; TPP: no hit
* Nc1ccc2nc(SCc3ccc(Br)cc3)sc2c1 | PreQ1: no hit; TPP: no hit
* C=CCNc1nc(C2(C)CC3(CC(COCCC(C)C)OC3=O)C(=O)O2)cs1 (stereo not drawn) | PreQ1: no hit; TPP: no hit
* C#CCN(C)CC1=Cc2ccccc2Oc2ccccc21 | PreQ1: no hit; TPP: no hit
* O=C(COC(=O)c1ccc(C(O)c2ccccc2)cc1)c1ccccc1 (stereo not drawn) | PreQ1: no hit; TPP: no hit
* Cc1c(Cl)cccc1Nc1ncccc1C(=O)OCC(O)CO (stereo not drawn) | PreQ1: no hit; TPP: no hit
* Cc1c(C#N)c(N)c(C(=O)c2ccccc2)n1Cc1ccccc1 | PreQ1: no hit; TPP: no hit
* Cc1ccnn1CCC(=O)N1C[C@@H](CN2CCCN(C)CC2)[C@@H](CO)C1 | PreQ1: no hit; TPP: no hit
* OC[C@H]1O[C@@H](OCCc2ccc(O)cc2)[C@H](O)[C@@H](O)[C@@H]1O | PreQ1: no hit; TPP: no hit
* O=C(CSc1nnc(CCCO)n1-c1ccccc1)N1CCc2ccccc21 | PreQ1: no hit; TPP: no hit
* CC(C)CC1(CO)CCCN(C[C@H]2CC[C@@H](N)CC2)C1 (stereo partly drawn) | PreQ1: no hit; TPP: no hit
* COCCCCC(=NOCCN)c1ccc(C(F)(F)F)cc1 | PreQ1: no hit; TPP: no hit
* COc1ccc(C2=C(C)C(NCCCN3CCCCC3)=NS2(=O)=O)cc1 | PreQ1: no hit; TPP: no hit
* Cc1ccc(-c2ncc(C(=O)N3C[C@H](O)[C@@H](N4CCCC4)C3)c(O)n2)cc1 | PreQ1: no hit; TPP: no hit
* COc1cccc([C@@H]2CCN(Cc3cnc(-c4ccccn4)nc3)C[C@H]2O)c1 | PreQ1: no hit; TPP: no hit
* C=CCNc1oc(-c2ccc(F)cc2)nc1C#N | PreQ1: no hit; TPP: no hit
* Nc1ccc2nc(SCC(=O)N3CCCCC3)sc2c1 | PreQ1: no hit; TPP: no hit
* Cc1ccc(C2C(C#N)=C(N)OC3=C2S(=O)(=O)N(Cc2ccc(F)cc2)c2ccccc23)cc1 (stereo not drawn) | PreQ1: no hit; TPP: no hit
* Cc1nc(Nc2ccc(S(=O)(=O)Nc3ccccn3)cc2)cc(-c2ccccc2)n1 | PreQ1: no hit; TPP: no hit
* N#CC1=C(N)Oc2[nH]nc(-c3cccs3)c2C1c1ccc(C(F)(F)F)cc1 (stereo not drawn) | PreQ1: no hit; TPP: no hit
* CC1CC(O)C2C3(C)CCCC2(COC3=O)C12CCC1(CCOC1=O)O2 (stereo not drawn) | PreQ1: no hit; TPP: no hit
* CCNc1oc(-c2ccc(Cl)cc2)nc1S(=O)(=O)c1ccccc1 | PreQ1: no hit; TPP: no hit
* N#Cc1c(N)nc2c(c1-c1ccc(C(N)=O)cc1)CCc1cc(O)ccc1-2 | PreQ1: no hit; TPP: no hit
* CC1(C)Cc2c(c(-c3ccco3)nc3sc4c(NCCN5CCOCC5)ncnc4c23)CO1 | PreQ1: no hit; TPP: no hit
* O=S(=O)(NCC1(O)CCCNCC1)c1ccc(-c2ccccn2)s1 (stereo not drawn) | PreQ1: no hit; TPP: no hit
* Cc1ccccc1N1CCCN(CC(C)(C)N)CC1 | PreQ1: no hit; TPP: no hit
* Nc1c(N2CCOCC2)c2ccccc2oc1=O | PreQ1: no hit; TPP: no hit
* COc1cccc(CNCc2ccc(F)cc2)c1OC | PreQ1: no hit; TPP: no hit

The first 2 entries again:

SMILES	PreQ1	TPP
Cc1c(C)n(CCO)c2ncn3nc(Cc4ccccc4)nc3c12	no hit	no hit
CNc1ccc(C(=O)NCC2CCN(CCC(F)(F)F)C2)cc1 (stereo not drawn)	no hit	no hit

Source: the ROBIN nucleic acid binder screens (doi:10.1002/anie.202211358).